We go through 38 molecules from PubChem BioAssay AID2685 (National Center for Advancing Translational Sciences (NCATS), 2010).

The other results are listed elsewhere or left out. Shown are side measurements of this screen, not its main read-out; they come without a call. The list favours compounds with an active or inconclusive main result. Potencies come from curve fits of mixed quality, noted in brackets.

This experiment can be described thus: qHTS Assay for Lipid Storage Modulators in Drosophila S3 Cells.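 As to cell number change: cells counted by Cell Tracker Red CMTPX staining in the red channel.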 As to conditions: BODIPY lipid droplet fluorescence, 18-24 h; for cell number change: measured here: cell count max response, cells fed with added oleic acid. In a few lines:
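Drosophila S3 cells loaded with oleic acid (400 uM, as added) and compounds at several concentrations; lipid droplets imaged by 488-nm laser-scanning cytometry, 500–530 nm intensity and object ratio to cell channel. Percent activity normalized to 20 uM Triacsin C.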
Background: In qHTS, concentration-response curves come from the screen itself.

Where [1] appears, read: measured here: cell number channel AC50, cells fed with added oleic acid.
The mark [2] stands for this setting: measured here: lipid fluorescence (Fed channel) AC50, cells fed with added oleic acid.

In the case of `C/C(=N\N(c1ccccc1)c1ccccc1)c1ccco1`, the cell number change worked out at 21.7%.
For `Cc1ccc(C)c(S(=O)(=O)N2CCCC2CNC(=O)C(=O)NC2CC2)c1` (stereo not given), the cell number change turned out to be 58.2%. Besides, the AC50 (as a rule, the midpoint of the concentration-response curve, whichever way the signal moves) under setting [1] was 18.4 µM [rising, partial curve].
In the case of `COC(=O)[C@H](Cc1c[nH]c2ccccc12)NC(=O)NCc1ccccc1`, the cell number change came to 15.6%. Also, the AC50 under setting [2] was 6.51 µM [falling, single point].
For the molecule `Cc1[nH]c2ccc(C(=O)NCCCN3CCCCCC3)cc2c1C`, the cell number change is -7.78%. Further, under setting [2], the AC50 is 5.17 µM [falling, full curve].
For the molecule `CC(C)C(=O)N1CCN(c2ccc(NC(=O)c3ccc4c(c3)OCCO4)cc2Cl)CC1`, the cell number change is -13.6%.
For `Cn1c(=O)c2c(nc(N3CCc4ccccc4C3)n2C)n(C)c1=O`, the cell number change was -12.7%. Further, the AC50 under setting [2] is 0.00517 µM [falling, full curve, poor fit].
Regarding `CC(C)Oc1ccc(C(CCN)C2CCCCC2)cc1` (stereo not given), the cell number change was -68.7%. Moreover, under setting [1], the AC50 is 18.4 µM [falling, single point].
`Cc1ccc(NC(=O)COC(=O)c2ccc3c(c2)OCO3)c(C)c1`: the cell number change was found to be 16%. For the same molecule, the AC50 under setting [2] is 0.103 µM [rising, full curve, poor fit].
For `COc1ccc(-n2nnc3c(=O)n(CC(=O)N4CCCc5ccccc54)cnc32)cc1`, the AC50 is, setting by setting: under setting [1], 1.16 µM [rising, partial curve]; under setting [2], 1.64 µM [rising, partial curve].
Take `Cc1ccc(C(C)NC(=O)c2cc(C)oc2C)cc1` (stereo not given): the cell number change was -12.4%. Under setting [2], the AC50 is 0.00517 µM [falling, full curve, poor fit].
With `Cc1ccc2c(c1)nnn2C1CCN(S(=O)(=O)c2cccc(S(=O)(=O)N(C)C)c2)CC1`, the cell number change was -30.9%. The AC50 under setting [1] is 0.000731 µM [falling, full curve, poor fit].
`Cc1cc(=O)oc2c(CN3CCC(C)CC3)c(O)c(Cl)cc12`: the AC50 under setting [1] is 6.51 µM [falling, partial curve, poor fit].
In the case of `O=C(O)COc1ccccc1/C=N/NC(=O)Cc1csc(Nc2cccc(C(F)(F)F)c2)n1`, the cell number change stood at 84.3%. Moreover, the AC50 under setting [1] is 7.31 µM [rising, partial curve]. The AC50 under setting [2] was 8.2 µM [rising, partial curve].
As to `CCOC(=O)C1CCCN(c2c(NCCN(C)Cc3ccccc3)c(=O)c2=O)C1` (stereo not given), the cell number change was 2.58%. The AC50 under setting [2] is 0.0651 µM [falling, full curve].
For `O=C(Nc1ccccc1)Nc1cc(Cl)cc(Cl)c1`, the cell number change is -67.7%. Also, the AC50 under setting [1] was 20.6 µM [falling, single point]. Besides, the AC50 under setting [2] is 14.6 µM [falling, partial curve].
On to `COc1cccc(/C=C/C(=O)OCCN2C(=O)c3ccccc3C2=O)c1`, for which the cell number change came to 57.4%. The AC50 under setting [1] is 18.4 µM [rising, single point]. Also, the AC50 under setting [2] was 29.1 µM [rising, single point].
For `Cc1cc(C)n(CC(=O)NNC(=O)c2ccc(NC(=O)CC#N)cc2)n1`, the cell number change stood at 15.7%.
Take `COc1ccc(N(C(C)C(=O)NN=C2CCCCCCC2)S(C)(=O)=O)cc1` (stereo not given): the cell number change is 40.4%. In addition, the AC50 under setting [1] was 29.1 µM [rising, single point]. Besides, under setting [2], the AC50 is 25.9 µM [rising, single point].
In the case of `CCn1c(SC)nnc1C1CCCN(CC(=O)Nc2ccccc2N2CCOCC2)C1` (stereo not given), the cell number change was determined as 6.52%.
Regarding `O=C(NCc1ccccc1)c1cccc(NS(=O)(=O)c2cccc3cccnc23)c1`, the cell number change stood at 6.91%. Further, the AC50 under setting [2] is 1.3 µM [rising, full curve].
Regarding `C=CCn1c(SCC(C)=O)nc2scc(-c3ccco3)c2c1=O`, the cell number change was 55.2%. Besides, the AC50 under setting [1] is 16.4 µM [rising, partial curve, poor fit]. Further, the AC50 under setting [2] was 6.51 µM [rising, single point].
As for `Cc1cc(=O)oc2cc(OC(C)C(=O)N3CCCc4ccccc43)ccc12` (stereo not given), the cell number change was found to be 7.66%. For the same molecule, the AC50 under setting [2] was 0.092 µM [rising, full curve, poor fit].
As for `Nn1cnnc1N/N=C/c1ccccc1C(F)(F)F`, the cell number change was -33.4%. Further, the AC50 under setting [1] is 0.13 µM [falling, full curve, poor fit]. Moreover, the AC50 under setting [2] is 8.2 µM [falling, partial curve].
For `COc1cc(OC)cc(C(=O)Nc2cccc3ccccc23)c1`, the cell number change was -21%.
Take `Cc1ccc(C(=O)NCC(c2ccco2)N2CCc3ccccc3C2)cc1C` (stereo not given): the cell number change was found to be 73.7%. The AC50 under setting [1] was 8.2 µM [rising, partial curve].
`COc1ccc(CNC(=O)COC(=O)C(CCSC)NC(=O)c2ccco2)cc1OC` (stereo not given): the cell number change was determined as 9.14%. Also, the AC50 under setting [2] is 6.51 µM [falling, single point].
For the molecule `Oc1cccc2ccc(/C=C/c3c(F)cccc3Cl)nc12`, the cell number change was determined as 35%. For the same molecule, the AC50 under setting [2] was 0.58 µM [rising, single point].
Consider `COc1cc(OC)c(NC(=O)CC(=O)Nc2cc(Cl)c(OC)cc2OC)cc1Cl`, for which the cell number change came out at 17.9%. Further, the AC50 under setting [2] was 18.4 µM [falling, partial curve].
As to `COc1ccccc1Cn1nc(C(=O)O)c2ccccc2c1=O`, the cell number change is 32.5%. In addition, under setting [1], the AC50 was 7.31 µM [rising, partial curve, poor fit].
As for `CCOC(=O)c1[nH]c(C)c(CN(CCc2ccccc2)S(C)(=O)=O)c1C`, the cell number change is -15.8%.
In the case of `O=C(/C=C/c1ccco1)c1ccc(NC(=O)C23CC4CC(CC(C4)C2)C3)cc1`, the AC50 under setting [2] was 18.4 µM [falling, partial curve].
As to `COC(=O)C1(C)NC(=O)c2ccccc2N1` (stereo not given), the cell number change was -48.6%. Moreover, under setting [1], the AC50 is 16.4 µM [falling, partial curve, poor fit]. Moreover, the AC50 under setting [2] is 0.164 µM [falling, full curve, poor fit].
Take `Cc1ccc(S(=O)(=O)N2CCC(=O)N(C(COCc3cccc(C(F)(F)F)c3)C(C)C)CC2)cc1` (stereo not given): the cell number change was 8.81%.
For `CC(NC(=O)Nc1ccc(Cl)c(Cl)c1)C(c1ccccc1)N1CCOCC1` (stereo not given), the cell number change came to 5.1%. Further, the AC50 under setting [2] was 4.11 µM [rising, single point].
Take `Cc1sc(NC(=O)Cn2[nH]c(=O)c3ccccc3c2=O)nc1-c1ccccc1`: the cell number change amounted to 8.68%. Further, the AC50 under setting [2] was 2.91 µM [rising, full curve].
With `C=CCOC(=O)/C(=C/c1cccnc1)NC(=O)c1ccccc1`, the cell number change worked out at 26.7%. Besides, the AC50 under setting [1] is 1.16 µM [rising, full curve, poor fit]. Also, under setting [2], the AC50 was 1.46 µM [rising, full curve].
Take `COc1ccc(CCNC(=O)CSc2nnc(Cc3csc(N)n3)n2C)cc1OC`: the cell number change is 3.17%. Besides, the AC50 under setting [2] was 29.1 µM [falling, single point].
With `CN(Cc1ccccc1)Cc1nc2c(c(=O)n(C)c(=O)n2C)n1CCCc1ccccc1`, the cell number change came to 3.94%. Further, under setting [1], the half-maximal activity concentration (AC50) was 6.51 µM [falling, single point].
